Experimental data from paper PMC10869683, “Structure of recombinant formate dehydrogenase from Methylobacterium extorquens (MeFDH1)” (Scientific Reports, 2024).
These are yes or no findings as the source states them, for the method shown. Some results given as binding are weak or reduced against the parent protein; the word gives no strength. Where a sequence is shown, tags or fusion partners need not be part of it.

Tests used:
[1] = molecular target: T1, Methylobacterium extorquens AM1 formate dehydrogenase 1 alpha subunit (MeFDH1-α), recombinant, His-tagged (Methylobacterium extorquens AM1) (UniProt C5ATT7); assay: cryo-EM structure; single-particle cryo-EM of purified MeFDH1 (0.5 mg/ml), Glacios 200 kV, Falcon 4; holoenzyme map at 2.83 Å; both purified
T1 sequence: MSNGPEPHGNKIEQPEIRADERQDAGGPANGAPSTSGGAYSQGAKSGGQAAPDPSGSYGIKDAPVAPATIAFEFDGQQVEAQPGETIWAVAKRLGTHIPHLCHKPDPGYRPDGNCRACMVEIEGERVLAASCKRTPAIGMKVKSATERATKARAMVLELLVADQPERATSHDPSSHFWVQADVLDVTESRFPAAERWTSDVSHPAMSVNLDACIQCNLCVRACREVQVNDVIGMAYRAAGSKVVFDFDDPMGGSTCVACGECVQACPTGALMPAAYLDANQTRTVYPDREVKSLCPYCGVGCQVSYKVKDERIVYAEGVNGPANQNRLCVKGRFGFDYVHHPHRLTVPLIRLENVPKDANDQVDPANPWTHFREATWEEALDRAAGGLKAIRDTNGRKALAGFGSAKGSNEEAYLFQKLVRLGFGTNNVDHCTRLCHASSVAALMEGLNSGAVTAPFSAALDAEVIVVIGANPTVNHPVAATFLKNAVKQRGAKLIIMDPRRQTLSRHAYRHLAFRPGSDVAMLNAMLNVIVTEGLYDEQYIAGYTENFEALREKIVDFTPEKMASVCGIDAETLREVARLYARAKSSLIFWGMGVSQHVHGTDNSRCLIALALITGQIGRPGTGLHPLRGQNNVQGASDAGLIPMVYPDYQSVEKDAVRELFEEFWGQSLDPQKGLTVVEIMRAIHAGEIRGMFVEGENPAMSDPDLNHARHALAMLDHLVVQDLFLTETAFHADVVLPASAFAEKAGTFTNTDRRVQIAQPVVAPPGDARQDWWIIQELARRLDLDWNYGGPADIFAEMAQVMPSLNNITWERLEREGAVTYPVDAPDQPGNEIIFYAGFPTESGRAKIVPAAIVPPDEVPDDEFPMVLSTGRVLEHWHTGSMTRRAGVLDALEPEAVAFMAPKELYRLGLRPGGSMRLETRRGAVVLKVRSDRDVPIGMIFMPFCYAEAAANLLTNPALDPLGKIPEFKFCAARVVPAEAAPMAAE

[2] = molecular target: T1, Methylobacterium extorquens AM1 formate dehydrogenase 1 alpha subunit (MeFDH1-α), recombinant, His-tagged (Methylobacterium extorquens AM1); assay: SEC-MALS; Superdex 200 10/300 GL pre-equilibrated with the final SEC buffer; 1 mg protein injected at 0.4 ml/min; co-purified MeFDH1 complex; both purified

B1: Methylobacterium extorquens AM1 formate dehydrogenase 1 beta subunit (MeFDH1-β), recombinant (enzyme, UniProt C5ATT6 1-572)
chain: MSEASGTVRSFAHPGRGRNVARAVPKGRQVDPHAKVEIEELLGTRPRQRDLLIEHLHLIQDTYGQISADHLAALADEMSLAFAEVFETATFYAHFDVVKEGEADIPRLTIRVCDSITCAMFGADELLETLQRELASDAVRVVRAPCVGLCDHAPAVEVGHNFLHRADLASVRAAVEAEDTHAHIPTYVDYDAYRAGGGYATLERLRSGELPVDDVLKVLDDGGLRGLGGAGFPTGRKWRSVRGEPGPRLMAVNGDEGEPGTFKDQLYLNTDPHRFLEGMLIGAHVVEAADVYIYLRDEYPISREILAREIAKLPEGGTRIHLRRGAGAYICGEESSLIESLEGKRGLPRHKPPFPFQVGLFNRPTLINNIETLFWVRDLIERGAEWWKSHGRNGRVGLRSYSVSGRVKEPGVKLAPAGLTIQELIDEYCGGISDGHSFAAYLPGGASGGILPASMNDIPLDFGTLEKYGCFIGSAAVVILSDQDDVRGAALNLMKFFEDESCGQCTPCRSGTQKARMLMENGVWDTDLLGELAQCMRDASICGLGQAASNPVSTVIKYFPDLFPEPRAVAAE
Which binding [1] does the source give for B1 here?
The binding was “binds”.

And the binding [2]?
The binding was “binds”.
